Reference: PubChem BioAssay AID1259308 (NCATS, 2017)

Screen: 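Genes whose loss raises luciferase production in HEK293 cells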 (primary screen)
System: human HEK293 embryonic kidney cells stably expressing firefly luciferase (HEK-CMV-Luc2-Hygro)
Reagent: single siRNA against human genes, 0.8 pmol siRNA per well
Timing: 72 h
Read-out: 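Luciferase light (ONE-Glo) measured on one replicate plate set and viability (CellTiter-Glo) on the other, scaled to a negative control siRNA, with robust z-scores and luciferase per cell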
Direction: total luciferase, z-score and total luciferase, % of control: higher = more reporter protein produced
Call rule: 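An siRNA counts as active if its total luciferase robust z-score exceeds 3; genes with two or more such siRNAs out of three were retested with fresh siRNAs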
Meaning of the calls: active = raised luciferase; inactive = no rise
Shown is one part, drawn at random, of about 59,000 reagents. Of all reagents, about 1,510 (2.6%) got an active call. 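Calls use total luciferase alone and ignore viability, so some active siRNAs may act by altering cell number.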 A number with no mark means an inactive call. The numbers tell different reagents against one gene apart. Not all columns of the deposit are shown.

KRTAP5-5 #1 showed total luciferase, z-score 5.67 (active); total luciferase, % of control 195. KRTAP5-5 #2 gave total luciferase, z-score 0.255; total luciferase, % of control 87. Against KRTAP5-5 #3, the values are total luciferase, z-score 0.663; total luciferase, % of control 95.1. DEFB121 #1 scored total luciferase, z-score -0.566; total luciferase, % of control 70.6. DEFB121 #2 scored total luciferase, z-score 0.71; total luciferase, % of control 96. After knock-down of DEFB121 #3, the record shows total luciferase, z-score -1.03; total luciferase, % of control 61.4.

Against TERF1 #1 the deposit lists total luciferase, z-score -0.178; total luciferase, % of control 78.3. With knock-down of TERF1 #2, the screen gave total luciferase, z-score -0.23; total luciferase, % of control 77.3. Against TERF1 #3 the deposit lists total luciferase, z-score -0.147; total luciferase, % of control 79. For CDH6 #1 the deposit lists total luciferase, z-score 0.796; total luciferase, % of control 97.7. CDH6 #2 showed total luciferase, z-score -0.46; total luciferase, % of control 72.7. Silencing of CDH6 #3 resulted in: total luciferase, z-score -0.287; total luciferase, % of control 76.2.

LINC01242 #1 gave total luciferase, z-score 0.397; total luciferase, % of control 89.8. Against LINC01242 #2, the values are total luciferase, z-score 0.319; total luciferase, % of control 88.2. For LINC01242 #3 the deposit lists total luciferase, z-score -1.9; total luciferase, % of control 44. Knock-down of BHMT2 #1 came out at: total luciferase, z-score 0.704; total luciferase, % of control 95.9. After knock-down of BHMT2 #2, the record shows total luciferase, z-score 0.413; total luciferase, % of control 90.1. Knock-down of BHMT2 #3 resulted in: total luciferase, z-score 0.891; total luciferase, % of control 99.6.

After knock-down of ZNF702P #1 the results were total luciferase, z-score 1.81; total luciferase, % of control 118. With knock-down of ZNF702P #2, the screen gave total luciferase, z-score 0.367; total luciferase, % of control 89.2. For ZNF702P #3, the entry reads total luciferase, z-score -0.0808; total luciferase, % of control 80.3. Against ZNF92 #1, the values are total luciferase, z-score -0.107; total luciferase, % of control 79.8. Knock-down of ZNF92 #2 gave: total luciferase, z-score 1.02; total luciferase, % of control 102. Silencing of ZNF92 #3 gave: total luciferase, z-score 0.61; total luciferase, % of control 94.

Against MAGOHB #1, the values are total luciferase, z-score 1.16; total luciferase, % of control 105. For MAGOHB #2 the deposit lists total luciferase, z-score 0.119; total luciferase, % of control 84.3. Depletion of MAGOHB #3 came out at: total luciferase, z-score -0.612; total luciferase, % of control 69.7. ABRACL #1 showed total luciferase, z-score 0.428; total luciferase, % of control 90.4. Silencing of ABRACL #2 gave: total luciferase, z-score 2.65; total luciferase, % of control 135. Depletion of ABRACL #3 resulted in: total luciferase, z-score 1.64; total luciferase, % of control 115.

With knock-down of RNF39 #1 the results were total luciferase, z-score 0.234; total luciferase, % of control 86.5. Against RNF39 #2, the values are total luciferase, z-score 3.51 (active); total luciferase, % of control 152. Against RNF39 #3, the entry reads total luciferase, z-score 1.34; total luciferase, % of control 108.
